In PMC3366963:
Results are given in words; binding and its absence hold for the method and conditions named. In cells and extracts the contact can be indirect. Some entries that bind do so weakly or less than the wild type.

The chains behind the UniProt entries cited, without tags or fusion partners. Where a name states a change or a piece, a line headed by the entry shows the natural chain unless it says otherwise. Residues count along the entry.
UniProt Q14191: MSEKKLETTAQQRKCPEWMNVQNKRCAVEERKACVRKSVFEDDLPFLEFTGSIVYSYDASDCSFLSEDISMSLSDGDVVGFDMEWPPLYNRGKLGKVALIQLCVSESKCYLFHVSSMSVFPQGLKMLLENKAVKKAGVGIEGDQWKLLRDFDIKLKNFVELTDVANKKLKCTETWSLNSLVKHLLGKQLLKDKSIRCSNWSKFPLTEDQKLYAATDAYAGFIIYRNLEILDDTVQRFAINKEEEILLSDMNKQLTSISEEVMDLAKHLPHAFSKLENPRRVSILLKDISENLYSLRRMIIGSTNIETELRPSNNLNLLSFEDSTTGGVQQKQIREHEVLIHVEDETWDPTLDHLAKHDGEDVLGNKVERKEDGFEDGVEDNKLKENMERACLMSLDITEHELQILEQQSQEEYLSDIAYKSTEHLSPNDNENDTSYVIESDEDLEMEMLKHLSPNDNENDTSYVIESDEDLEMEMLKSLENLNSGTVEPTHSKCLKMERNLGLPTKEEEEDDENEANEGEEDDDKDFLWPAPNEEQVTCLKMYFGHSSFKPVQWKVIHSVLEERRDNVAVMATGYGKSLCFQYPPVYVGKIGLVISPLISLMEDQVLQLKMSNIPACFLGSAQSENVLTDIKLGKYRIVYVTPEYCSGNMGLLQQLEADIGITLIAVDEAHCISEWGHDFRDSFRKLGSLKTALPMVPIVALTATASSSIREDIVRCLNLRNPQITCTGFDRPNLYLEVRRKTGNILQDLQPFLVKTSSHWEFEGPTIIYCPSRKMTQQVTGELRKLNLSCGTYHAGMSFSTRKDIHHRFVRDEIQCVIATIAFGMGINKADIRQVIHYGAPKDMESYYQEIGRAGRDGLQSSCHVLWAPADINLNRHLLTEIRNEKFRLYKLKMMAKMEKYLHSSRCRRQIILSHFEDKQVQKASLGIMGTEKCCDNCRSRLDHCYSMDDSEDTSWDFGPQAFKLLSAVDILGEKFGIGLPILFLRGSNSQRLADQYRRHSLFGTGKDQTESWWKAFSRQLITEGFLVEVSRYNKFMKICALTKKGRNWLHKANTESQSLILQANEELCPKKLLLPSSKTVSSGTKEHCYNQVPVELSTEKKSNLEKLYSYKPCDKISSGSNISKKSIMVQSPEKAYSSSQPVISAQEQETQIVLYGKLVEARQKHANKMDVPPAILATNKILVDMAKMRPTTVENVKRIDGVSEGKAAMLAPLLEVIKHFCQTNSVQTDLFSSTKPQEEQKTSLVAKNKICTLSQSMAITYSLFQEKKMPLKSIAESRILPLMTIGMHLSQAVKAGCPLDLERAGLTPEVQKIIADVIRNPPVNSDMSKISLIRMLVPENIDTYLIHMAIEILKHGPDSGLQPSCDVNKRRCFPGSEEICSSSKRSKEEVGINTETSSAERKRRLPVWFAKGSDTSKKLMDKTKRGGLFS
GFP-NCL 1–283 (N-terminal domain) (P19338, residues 1-283): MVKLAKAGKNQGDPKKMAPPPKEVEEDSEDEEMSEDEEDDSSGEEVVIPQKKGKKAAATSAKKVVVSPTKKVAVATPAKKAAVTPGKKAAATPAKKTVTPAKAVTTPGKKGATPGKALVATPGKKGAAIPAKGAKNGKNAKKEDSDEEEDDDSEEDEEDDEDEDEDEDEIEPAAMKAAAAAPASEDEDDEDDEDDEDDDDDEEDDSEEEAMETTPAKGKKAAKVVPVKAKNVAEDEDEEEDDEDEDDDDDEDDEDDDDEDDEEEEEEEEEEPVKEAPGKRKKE
GFP-NCL 284–707 (GFP-ΔN-NCL) (P19338, residues 284-707): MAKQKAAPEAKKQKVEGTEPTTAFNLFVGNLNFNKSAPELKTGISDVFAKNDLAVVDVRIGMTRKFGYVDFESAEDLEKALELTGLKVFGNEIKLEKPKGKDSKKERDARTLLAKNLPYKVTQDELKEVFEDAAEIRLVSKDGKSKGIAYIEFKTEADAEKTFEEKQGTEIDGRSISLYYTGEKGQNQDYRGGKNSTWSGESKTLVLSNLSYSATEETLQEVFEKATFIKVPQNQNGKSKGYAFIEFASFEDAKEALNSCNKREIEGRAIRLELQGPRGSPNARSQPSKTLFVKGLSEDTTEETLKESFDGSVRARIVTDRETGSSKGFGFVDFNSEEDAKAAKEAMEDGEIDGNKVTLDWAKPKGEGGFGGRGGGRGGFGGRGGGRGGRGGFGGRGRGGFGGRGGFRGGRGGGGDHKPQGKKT

Biological target: Werner protein (WRNp), endogenous (human (endogenous in TERT-1604, HeLa, U2OS)) (UniProt Q14191)
Test: co-IP; extracts of HeLa cells transiently transfected with GFP-NCL constructs (150 mM NaCl, 50 mM Tris-HCl pH 7.5, 0.5% NP-40), precipitated with WRN antibody, blotted with anti-GFP

For “GFP-NCL 1–283 (N-terminal domain) (from UniProt P19338 1-283) (domain or fragment)”, the binding was “no binding”.
With “GFP-NCL 284–707 (GFP-ΔN-NCL) (from UniProt P19338 284-707) (domain or fragment)” the binding was “binds”.
